## Primary screen of a compound library

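Phenotypic screen: M. tuberculosis growth, glucose 7H9 medium, 3 days; the read-out is not stated. Compounds at 50 µM. Direction is inferred from retests: higher values go with more growth inhibition. Of about 69,000 compounds tested this way, about 760 (1.1%) reached 50% or more in at least one test.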

The filed quantity is “Percent Effect” (%).
The controls that fix the scale are not given in the record; negative values are as filed.
Compounds were drawn at random from those tested, without regard to their results.
Two or more numbers in one place are separate tests of the same structure; such repeats can differ widely.

compound | Percent Effect
[H][C@@]12C[C@H](C(=O)Nc3cnccn3)CN(S(C)(=O)=O)[C@]1([H])CCO2 | -4.7% & -7.537%
CC[C@H]1CN(S(C)(=O)=O)CC[C@H]1CC(=O)NCCSC | -40.56% & 3.707%
Cc1cc(C)n(CC(=O)N2CCCCC2CCc2cccs2)c(=O)n1 (stereo not drawn) | -12.74%
CCCn1nnnc1CN1Cc2ccccc2CC1c1nnc(C)o1 (stereo not drawn) | 4.238%
O=C(NCC1CCCCO1)c1ccc(-c2cccs2)[nH]c1=O (stereo not drawn) | 6.231%
Cc1noc(CN(C)Cc2cnc(N3CCOCC3)nc2)n1 | 8.916%
O=C(Nc1ccc(S(=O)(=O)Nc2ccccc2)cc1)N1CCCC1 | 2.444%
CN(C)Cc1cnn(-c2ccccc2C(=O)NCCC2CCCN2C)c1 (stereo not drawn) | -1.08%
Cc1noc(C2CCCN(Cn3cc(Br)cn3)C2)n1 (stereo not drawn) | -33.04%
COCCNC(C)c1ccc(-c2cccnc2)cc1 (stereo not drawn) | -4.697% & -8.81%
Cc1n[nH]c(C2CN(CC(=O)NCc3cccs3)CCO2)n1 (stereo not drawn) | -14.12%
CC(C)Cc1noc(CN2CCN(CCO)CC2)n1 | -16.29%
Cc1cc(-n2c(C)cn(CN(C)C3CCS(=O)(=O)C3)c2=O)no1 (stereo not drawn) | -1.558% & -5.332%
Cc1ncsc1CCn1ccnc1-c1cc2n(n1)CCCNC2 | -32.37% & -2.914%
COC(=O)c1cccn1C1CCN(C(=O)c2ccc(C)[nH]c2=O)CC1 | 23.58%
CCCC(=O)NCc1cccc(C(=O)OC)c1 | 28.97% & -2.724%
CCOCc1ccccc1NC(=O)NC1CCN(C2CCCC2)C1 (stereo not drawn) | -23.69%
O=C(c1ccncc1)N1CCC(Oc2cccc(C(F)(F)F)c2)CC1 | 38.7% & 17.58%
CCn1ccnc1CN1CCCN(C(=O)c2ccnc(C)n2)CC1 | -6.508%
Cn1c(C(F)(F)F)nn(CCNC(=O)c2ccccn2)c1=O | 2.99%
CCN(CC)C(CNCc1ccc(OC)c(F)c1)c1ccco1 (stereo not drawn) | -27.97%
CCn1ccnc1CN1CCN(CCOc2ccc(C#N)cc2)CC1 | 7.105% & -13.72%
CCCn1cc(S(=O)(=O)N[C@H]2CN(CC(N)=O)C[C@@H]2C2CC2)cn1 | 23.97%
CC(C)c1ncncc1C(=O)N1CCN(Cc2cscn2)CC1 | -1.028%
Cc1cnn(C2CCCN(C(=O)CCCNc3ncccn3)C2)c1 (stereo not drawn) | -11.73%
CCc1nc(CN2CCc3c(ncn3C3CC3)C2)cs1 | 33.43%
COc1ccccc1[C@@H]1CN(Cc2ccncc2)C[C@H]1C(=O)O | -21.9%
CS(=O)(=O)N1CCC(NCC2(N3CCOCC3)CCCCC2)CC1 | -17.92%
Cc1ccc(OCC(=O)N2CCOCC(O)(CN3CCCC3)C2)cc1C (stereo not drawn) | 2.464%
Cc1nnc2n1CCN(C(=O)CN1C(=O)CCCc3ccccc31)C2 | -35.39% & -8.569%
CNC(=O)c1cc(C)ccc1NCc1cn2cc(C)ccc2n1 | -9.739% & -2.273%
O=C(c1ccc(Cn2cc(Br)cn2)cc1)N1CCOCC1 | 18.26%
CCc1cc(NC(CCO)c2ccc(OC)cc2)n2nccc2n1 (stereo not drawn) | -1.528% & 1.758%
Cc1nn(C)cc1C1CC(=O)Nc2c1cnn2C (stereo not drawn) | -5.504%
CCN(CC)C(=O)c1ccc(Cl)c(NC(=O)c2cc(C(C)C)on2)c1 | 37.58% & 27.32%
Cc1noc(C)c1-c1ccc(C2CCCN2C(=O)c2cccnc2)nc1 (stereo not drawn) | -6.803%
Cc1[nH]nc(CCC(=O)N2CCc3c(nc[nH]c3=O)C2)c1C | -2.004%
Cc1cc2n(n1)CC(CNCc1ccc(OCC3CC3)nc1)CN2 (stereo not drawn) | 31.47%
COc1cc(NCc2c(C)noc2C)c(C(=O)N(C)C)cc1OC | -21.57%
Cc1cc(C)nc(C2CCCN2c2ccnc(C)n2)n1 (stereo not drawn) | -17.29%
CN1CCOC(CNCc2nc(-c3ccoc3)no2)C1 (stereo not drawn) | 34.54%
CCN(CC)c1ccc(C(=O)N(C)Cc2c(C)noc2C)cn1 | 10.08%
Cc1nnc(NC(=O)CN2CCCC2c2noc(C3CC3)n2)s1 (stereo not drawn) | -0.594%
N[C@H]1CCCN(C(=O)c2cnc(COc3ccccc3)nc2O)C1 | 15.81%
Cc1ccc(NC2CCN(C(=O)Cc3ccc(C)s3)CC2)nn1 | 4.328%
COCCCN1CCN(CC2CCCO2)CC1 (stereo not drawn) | -72.93%
COc1ccc(-c2cc(C3CC3)c(C#N)c(N)n2)cc1F | 3.771%
O=C(NCCSc1ccccc1)[C@H]1CNC[C@@H](C(=O)N2CCOCC2)C1 | -11.56%
Cc1cnc(-c2nc(O)c3c(n2)CN(C(=O)C2CCCC2)CC3)cn1 | -4.936%
CN(C)C(=O)CN1CCC2(COCc3cnc(-c4cccnc4)nc32)C1.O=C(O)C(F)(F)F.O=C(O)C(F)(F)F (stereo not drawn) | -10.85%
CS(=O)(=O)N1CCC(c2cncc(Cl)n2)CC1 | -3.08%
CC(C)OC(=O)CN1N=C(C(=O)N2CCCC2)S(=O)(=O)c2ccccc21 | -2.874% & 3.648%
Cl.c1cnc2c(c1)cc([C@@H]1CCCO1)n2CCN1CCCCC1 | 34.17%
COCCC(=O)N1CCC(c2cncc(Oc3cccnc3)n2)CC1 | -9.291%
[H][C@]12CC[C@](O)(CC1)C(COC)N2C(=O)Nc1ccccc1 (stereo partly drawn) | 3.871%
CCc1[nH]c2c(CNc3nccc(N)n3)cc(F)cc2c1C | 44.65%
COc1cc(CNCC(O)c2ccc(C)cc2)cc2c1OCCO2.Cl (stereo not drawn) | 16.76%
O=C(CCc1ccsc1)Nc1cnccc1O | -6.945%
CC(C)(C)OC(=O)N[C@@H]1C[C@@H](O)CN(C(=O)c2cccc(F)c2)C[C@H]1O | 20.72%
COc1ccc(-c2ccoc2)cc1CNC1CCCC1 | 1.761%
CN(C)S(=O)(=O)NCCn1nc(-c2ccccc2)n(C)c1=O | -12.95% & -4.623%

Some entries from above, unchanged:

{"compound": "Cc1cc(-n2c(C)cn(CN(C)C3CCS(=O)(=O)C3)c2=O)no1", "stereo": "stereo not drawn", "Percent Effect": "-1.558 & -5.332"}
{"compound": "COc1cc(NCc2c(C)noc2C)c(C(=O)N(C)C)cc1OC", "Percent Effect": -21.57}
{"compound": "Cc1cc(C)nc(C2CCCN2c2ccnc(C)n2)n1", "stereo": "stereo not drawn", "Percent Effect": -17.29}
{"compound": "O=C(c1ccc(Cn2cc(Br)cn2)cc1)N1CCOCC1", "Percent Effect": 18.26}
{"compound": "CS(=O)(=O)N1CCC(c2cncc(Cl)n2)CC1", "Percent Effect": -3.08}
{"compound": "O=C(NCC1CCCCO1)c1ccc(-c2cccs2)[nH]c1=O", "stereo": "stereo not drawn", "Percent Effect": 6.231}
{"compound": "CCOCc1ccccc1NC(=O)NC1CCN(C2CCCC2)C1", "stereo": "stereo not drawn", "Percent Effect": -23.69}

The values are deposited in ChEMBL (CHEMBL3988442, “University of Dundee, Small-Polar-MMV Screening Library” (2021)).